Experimental data from patent EP0626016B1, “[…] […]” (BRITISH TECHNOLOGY GROUP LIMITED, priority 1992, dated 1993).
Some results were stated once for a whole list of compounds, not compound by compound.

These compounds were tested against T1, HRP Type VIA (Armoracia rusticana, UniProt P00433) (assay: not given). Details: not given.
T1 sequence (P00433 31-338): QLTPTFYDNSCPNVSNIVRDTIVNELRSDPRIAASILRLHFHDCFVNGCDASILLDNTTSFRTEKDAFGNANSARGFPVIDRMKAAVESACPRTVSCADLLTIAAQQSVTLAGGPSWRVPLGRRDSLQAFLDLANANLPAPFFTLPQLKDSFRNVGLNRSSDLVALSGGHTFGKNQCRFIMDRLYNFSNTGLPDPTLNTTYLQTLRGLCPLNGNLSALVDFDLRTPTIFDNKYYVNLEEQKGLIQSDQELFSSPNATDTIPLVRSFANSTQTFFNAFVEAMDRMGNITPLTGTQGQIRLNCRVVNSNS

| Compound | increasing the signal:background ratio of a chemiluminescent reaction | light output |
| --- | --- | --- |
| C[Si](C)(C)c1ccc(B(O)O)cc1 [Compound 1001, 4-(trimethylsilyl) benzeneboronic acid] | of use in increasing the signal:background ratio | also increase the light output |
| OB(O)c1ccc(-c2ccccc2)cc1 [Compound 1011, 4-biphenylboronic acid] | of use in increasing the signal:background ratio | also increase the light output |
| OB(O)c1cccc(Cl)c1 [Compound 1028, 3-chlorophenylboronic acid] | of use in increasing the signal:background ratio |  |
| OB(O)c1ccc(Cl)cc1 [Compound 1029, 4-chlorophenylboronic acid] | of use in increasing the signal:background ratio | also increase the light output |
| Clc1cc(Cl)cc(OB(Oc2cc(Cl)cc(Cl)c2)c2cc(Cl)cc(Cl)c2)c1 [Compound 1040, di-(3',5'-dichlorophenoxy)-3,5-dichlorophenylborane] | of use in increasing the signal:background ratio |  |
| bis(catechol)borate [Compound 1013] | of use in increasing the signal:background ratio |  |

Each compound was assayed against T1, HRP Type VIA (assay: Effect of organoboron compounds on the luminol-hydrogen peroxide-HRP chemiluminescent reaction (Example 2)). Details: result in words.
Assay type: biochemical, horseradish
Design: purchased Sigma Chemical Co
Description: The stock solution of HRP Type VIA (1mg/ml) and luminol-hydrogen peroxide reagent were prepared as described previously. Luminol-hydrogen peroxide (100µl, 1:10 dilution) was mixed with either 10µl of HRP (1:50,000 dilution) or, 10µl of Tris buffer (0.1mol/l, pH 8.6). […] A control without any test compound was run in parallel.
The control consisted of buffer in place of the compound under test as an enhancer. […]

| Compound | signal to background ratio as compared to their control values |
| --- | --- |
| OB(O)c1ccccc1 [phenylboronic acid] | improved |
